These are yes or no findings as the source states them, for the method shown. Binding seen in cells or lysates may run through a third protein. Some entries that bind do so weakly or less than the wild type. For some assays here: Sequences can lack the tags named with a protein.
Legend:
[1] = biological target: MUL1 (UniProt Q969V5); experiment: co-IP; MUL1 and UBXN3B overexpressed in HEK293 cells; beads and tags not stated; no figure
[2] = biological target: Myc-TRIM32 (human) (UniProt Q13049); experiment: co-IP; HEK293 cells co-transfected with FLAG-UBXN3B and Myc-TRIM plasmids; anti-Myc magnetic beads; immunoblot anti-Myc and anti-FLAG
[3] = biological target: T1, Myc-TRIM56 (human) (UniProt Q9BRZ2); experiment: as above
T1 sequence: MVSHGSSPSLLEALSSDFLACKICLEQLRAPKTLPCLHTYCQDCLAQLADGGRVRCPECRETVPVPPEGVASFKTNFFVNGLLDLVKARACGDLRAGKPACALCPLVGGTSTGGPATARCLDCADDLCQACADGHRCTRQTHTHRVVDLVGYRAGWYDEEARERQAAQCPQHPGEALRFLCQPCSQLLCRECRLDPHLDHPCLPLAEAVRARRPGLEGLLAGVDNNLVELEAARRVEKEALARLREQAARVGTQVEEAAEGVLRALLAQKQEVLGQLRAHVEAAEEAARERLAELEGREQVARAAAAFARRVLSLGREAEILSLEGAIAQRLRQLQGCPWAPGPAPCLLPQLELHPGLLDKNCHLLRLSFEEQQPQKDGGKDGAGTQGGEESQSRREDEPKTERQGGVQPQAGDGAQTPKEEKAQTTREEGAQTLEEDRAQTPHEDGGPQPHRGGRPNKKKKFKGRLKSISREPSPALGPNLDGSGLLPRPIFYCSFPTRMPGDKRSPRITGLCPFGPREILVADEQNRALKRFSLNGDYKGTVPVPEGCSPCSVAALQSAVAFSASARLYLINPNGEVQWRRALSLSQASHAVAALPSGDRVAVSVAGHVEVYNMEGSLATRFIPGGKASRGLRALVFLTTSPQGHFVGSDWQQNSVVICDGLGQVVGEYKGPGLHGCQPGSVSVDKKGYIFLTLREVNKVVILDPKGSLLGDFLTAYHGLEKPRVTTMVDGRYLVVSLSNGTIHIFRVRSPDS

Chains of the proteins cited; added tags and fusions are not shown.
UniProt Q969V5: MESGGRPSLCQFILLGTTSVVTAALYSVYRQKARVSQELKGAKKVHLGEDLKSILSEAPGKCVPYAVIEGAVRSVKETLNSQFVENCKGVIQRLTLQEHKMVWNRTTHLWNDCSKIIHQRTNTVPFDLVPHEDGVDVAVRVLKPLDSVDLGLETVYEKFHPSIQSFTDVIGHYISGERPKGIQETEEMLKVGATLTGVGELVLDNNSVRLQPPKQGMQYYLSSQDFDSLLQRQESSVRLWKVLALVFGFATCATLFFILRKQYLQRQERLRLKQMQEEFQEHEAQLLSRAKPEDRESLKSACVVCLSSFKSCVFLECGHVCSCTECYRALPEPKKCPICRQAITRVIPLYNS
UniProt Q13049: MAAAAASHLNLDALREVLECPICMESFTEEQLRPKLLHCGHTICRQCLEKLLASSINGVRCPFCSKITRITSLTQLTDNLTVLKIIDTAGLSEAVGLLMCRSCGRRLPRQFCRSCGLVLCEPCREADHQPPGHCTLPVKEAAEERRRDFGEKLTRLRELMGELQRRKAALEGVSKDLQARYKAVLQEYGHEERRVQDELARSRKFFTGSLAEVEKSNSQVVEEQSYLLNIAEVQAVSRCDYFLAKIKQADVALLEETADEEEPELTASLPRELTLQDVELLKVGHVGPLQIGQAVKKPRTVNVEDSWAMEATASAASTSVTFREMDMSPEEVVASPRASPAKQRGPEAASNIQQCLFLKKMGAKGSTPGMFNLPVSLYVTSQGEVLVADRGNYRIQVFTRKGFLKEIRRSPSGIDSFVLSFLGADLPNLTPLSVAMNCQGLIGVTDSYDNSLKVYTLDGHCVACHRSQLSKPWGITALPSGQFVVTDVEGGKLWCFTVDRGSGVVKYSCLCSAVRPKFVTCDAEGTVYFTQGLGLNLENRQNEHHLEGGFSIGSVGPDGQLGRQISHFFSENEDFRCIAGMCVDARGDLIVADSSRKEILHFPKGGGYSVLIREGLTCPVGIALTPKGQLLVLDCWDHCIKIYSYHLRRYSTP
UniProt Q86WV6: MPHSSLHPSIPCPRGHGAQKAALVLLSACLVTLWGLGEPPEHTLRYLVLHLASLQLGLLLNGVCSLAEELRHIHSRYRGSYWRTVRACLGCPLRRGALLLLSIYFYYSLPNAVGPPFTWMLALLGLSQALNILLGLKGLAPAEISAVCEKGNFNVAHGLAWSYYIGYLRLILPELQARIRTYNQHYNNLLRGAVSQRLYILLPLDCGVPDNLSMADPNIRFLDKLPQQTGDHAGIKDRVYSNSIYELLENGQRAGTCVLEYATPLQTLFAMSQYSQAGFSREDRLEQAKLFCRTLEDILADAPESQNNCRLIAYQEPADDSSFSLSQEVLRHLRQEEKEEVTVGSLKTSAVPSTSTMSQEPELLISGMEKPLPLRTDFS

[4] = biological target: STING (endogenous, human trophoblasts) (human (endogenous in primary trophoblasts)), Q86WV6; experiment: co-IP; endogenous proteins; WT primary human trophoblasts after cGAMP stimulation; conditions: remark: other sources report otherwise
[5] = biological target: STING (endogenous, human trophoblasts) (human (endogenous in primary trophoblasts)) (UniProt Q86WV6); experiment: co-IP; endogenous proteins; UBXN3B-/- primary human trophoblasts after cGAMP stimulation

B1: FLAG-UBXN3B (protein, UniProt Q96CS3 1-445)
chain: MAAPEERDLTQEQTEKLLQFQDLTGIESMDQCRHTLEQHNWNIEAAVQDRLNEQEGVPSVFNPPPSRPLQVNTADHRIYSYVVSRPQPRGLLGWGYYLIMLPFRFTYYTILDIFRFALRFIRPDPRSRVTDPVGDIVSFMHSFEEKYGRAHPVFYQGTYSQALNDAKRELRFLLVYLHGDDHQDSDEFCRNTLCAPEVISLINTRMLFWACSTNKPEGYRVSQALRENTYPFLAMIMLKDRRMTVVGRLEGLIQPDDLINQLTFIMDANQTYLVSERLEREERNQTQVLRQQQDEAYLASLRADQEKERKKREERERKRRKEEEVQQQKLAEERRRQNLQEEKERKLECLPPEPSPDDPESVKIIFKLPNDSRVERRFHFSQSLTVIHDFLFSLKESPEKFQIEANFPRRVLPCIPSEEWPNPPTLQEAGLSHTEVLFVQDLTDE
- binding [1]: no binding
- binding [2]: no binding
- binding [3]: binds

B2: TBK1 (endogenous, human trophoblasts), Q9UHD2 1-729 (enzyme)
chain: MQSTSNHLWLLSDILGQGATANVFRGRHKKTGDLFAIKVFNNISFLRPVDVQMREFEVLKKLNHKNIVKLFAIEEETTTRHKVLIMEFCPCGSLYTVLEEPSNAYGLPESEFLIVLRDVVGGMNHLRENGIVHRDIKPGNIMRVIGEDGQSVYKLTDFGAARELEDDEQFVSLYGTEEYLHPDMYERAVLRKDHQKKYGATVDLWSIGVTFYHAATGSLPFRPFEGPRRNKEVMYKIITGKPSGAISGVQKAENGPIDWSGDMPVSCSLSRGLQVLLTPVLANILEADQEKCWGFDQFFAETSDILHRMVIHVFSLQQMTAHKIYIHSYNTATIFHELVYKQTKIISSNQELIYEGRRLVLEPGRLAQHFPKTTEENPIFVVSREPLNTIGLIYEKISLPKVHPRYDLDGDASMAKAITGVVCYACRIASTLLLYQELMRKGIRWLIELIKDDYNETVHKKTEVVITLDFCIRNIEKTVKVYEKLMKINLEAAELGEISDIHTKLLRLSSSQGTIETSLQDIDSRLSPGGSLADAWAHQEGTHPKDRNVEKLQVLLNCMTEIYYQFKKDKAERRLAYNEEQIHKFDKQKLYYHATKAMTHFTDECVKKYEAFLNKSEEWIRKMLHLRKQLLSLTNQCFDIEEEVSKYQEYTNELQETLPQKMFTASSGIKHTMTPIYPSSNTLVEMTLGMKKLKEEMEGVVKELAENNHILERFGSLTMDGGLRNVDCL
- binding [4]: binds

B3: TBK1 (endogenous, human trophoblasts) (enzyme, UniProt Q9UHD2 1-729)
chain: MQSTSNHLWLLSDILGQGATANVFRGRHKKTGDLFAIKVFNNISFLRPVDVQMREFEVLKKLNHKNIVKLFAIEEETTTRHKVLIMEFCPCGSLYTVLEEPSNAYGLPESEFLIVLRDVVGGMNHLRENGIVHRDIKPGNIMRVIGEDGQSVYKLTDFGAARELEDDEQFVSLYGTEEYLHPDMYERAVLRKDHQKKYGATVDLWSIGVTFYHAATGSLPFRPFEGPRRNKEVMYKIITGKPSGAISGVQKAENGPIDWSGDMPVSCSLSRGLQVLLTPVLANILEADQEKCWGFDQFFAETSDILHRMVIHVFSLQQMTAHKIYIHSYNTATIFHELVYKQTKIISSNQELIYEGRRLVLEPGRLAQHFPKTTEENPIFVVSREPLNTIGLIYEKISLPKVHPRYDLDGDASMAKAITGVVCYACRIASTLLLYQELMRKGIRWLIELIKDDYNETVHKKTEVVITLDFCIRNIEKTVKVYEKLMKINLEAAELGEISDIHTKLLRLSSSQGTIETSLQDIDSRLSPGGSLADAWAHQEGTHPKDRNVEKLQVLLNCMTEIYYQFKKDKAERRLAYNEEQIHKFDKQKLYYHATKAMTHFTDECVKKYEAFLNKSEEWIRKMLHLRKQLLSLTNQCFDIEEEVSKYQEYTNELQETLPQKMFTASSGIKHTMTPIYPSSNTLVEMTLGMKKLKEEMEGVVKELAENNHILERFGSLTMDGGLRNVDCL
- binding [5]: no binding (condition: in UBXN3B^−/− cells)

Source: PMC5998066
